Results taken from US8461328B2, “Tricyclic heterocyclic compounds, compositions and methods of use thereof” (Genentech, Inc., priority 2010, dated 2013).
Some of these results come from one statement about several compounds together.

Chains of the proteins cited; added tags and fusions are not shown. Residues count along the entry.
UniProt P23458, 852-1154: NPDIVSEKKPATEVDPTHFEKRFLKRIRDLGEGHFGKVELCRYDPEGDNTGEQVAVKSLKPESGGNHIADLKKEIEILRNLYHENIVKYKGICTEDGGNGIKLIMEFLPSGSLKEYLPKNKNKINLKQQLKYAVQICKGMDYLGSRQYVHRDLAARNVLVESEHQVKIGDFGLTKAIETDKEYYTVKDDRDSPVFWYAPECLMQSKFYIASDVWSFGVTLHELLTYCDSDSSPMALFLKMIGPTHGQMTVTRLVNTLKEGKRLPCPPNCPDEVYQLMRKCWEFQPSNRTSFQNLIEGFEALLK

Target: T1, human JAK1 kinase domain (Homo sapiens, UniProt P23458)
T1 construct: made in house; host or cells: SF9 insect cells (baculovirus)
Experiment: JAK1 inhibition assay (Example B), Caliper LabChip peptide phosphorylation
Assay type: biochemical
Conditions: 1.5 nM JAK1, 25 μM ATP, Morrison tight binding model; read-out: Ki in a JAK1 kinase activity assay (Example B)

Row | Compound | Ki [nM]
1 | CC(C)(C)OC(=O)N1CCC(n2cnc3cnc4[nH]ccc4c32)CC1 [Example 124, 4-(6H-1,2,3,5,6-Tetraaza-as-indacen-1-yl)-piperidine-1-carboxylic acid tert-butyl ester] | < 500
2 | CC(C)(C)OC(=O)N1CCC(C)(n2cnc3cnc4[nH]ccc4c32)CC1 [Example 132, 4-Methyl-4-(6H-1,2,3,5,6-tetraaza-as-indacen-1-yl)-piperidine-1-carboxylic acid tert-butyl ester] | < 500
3 | CC(=O)N1CCC(n2c(C(F)(F)CN)nc3cnc4[nH]ccc4c32)CC1 [Example 139, 1-{4-[2-(2-Amino-1,1-difluoro-ethyl)-6H-1,2,3,5,6-tetraaza-as-indacen-1-yl]-piperidin-1-yl}-ethanone] | < 500
4 | O=C(N[C@H]1CC[C@H](n2cnc3cnc4[nH]ccc4c32)CC1)OCC1CC1 [Example 140, Trans[4-(6H-1,2,3,5,6-Tetraaza-as-indacen-1-yl)-cyclohexyl]-carbamic acid cyclopropylmethyl ester] | < 500
5 | O=C(N[C@H]1CC[C@H](n2cnc3cnc4[nH]ccc4c32)CC1)OC1CCNCC1 [Example 141, Trans[4-(6H-1,2,3,5,6-Tetraaza-as-indacen-1-yl)-cyclohexyl]-carbamic acid piperidin-4-yl ester] | < 500
6 | CN([C@H]1CC[C@H](n2cnc3cnc4[nH]ccc4c32)CC1)S(C)(=O)=O [Example 142, Trans N-Methyl-N-[4-(6H-1,2,3,5,6-tetraaza-as-indacen-1-yl)-cyclohexyl]-methanesulfonamide] | < 500
7 | CC(C)(C)OC(=O)N1CCC[C@H]1C(=O)N1CCC(n2cnc3cnc4[nH]ccc4c32)CC1 [Example 144, (S)-2-[4-(6H-1,2,3,5,6-Tetraaza-as-indacen-1-yl)-piperidine-1-carbonyl]-pyrrolidine-1-carboxylic acid tert-butyl ester] | < 500
8 | N#CCN1CCC[C@H]1C(=O)N1CCC(n2cnc3cnc4[nH]ccc4c32)CC1 [Example 146, {(S)-2-[4-(6H-1,2,3,5,6-Tetraaza-as-indacen-1-yl)-piperidine-1-carbonyl]-pyrrolidin-1-yl}-acetonitrile] | < 500
9 | O=C([C@@H]1CCCN1C1CCC1)N1CCC(n2cnc3cnc4[nH]ccc4c32)CC1 [Example 147, ((S)-1-Cyclobutyl-pyrrolidin-2-yl)-[4-(6H-1,2,3,5,6-tetraaza-as-indacen-1-yl)-piperidin-1-yl]-methanone] | < 500
10 | CC(C)(O)[C@H]1CC[C@H](n2cnc3cnc4[nH]ccc4c32)CC1 [Example 148, Trans 2-[4-(6H-1,2,3,5,6-Tetraaza-as-indacen-1-yl)-cyclohexyl]-propan-2-ol] | < 500
11 | O=C1CCC2(CCC(n3cnc4cnc5[nH]ccc5c43)CC2)N1 (stereo not shown) [Example 152, 8-(6H-1,2,3,5,6-Tetraaza-as-indacen-1-yl)-1-aza-spiro[4.5]decan-2-one] | < 500
12 | c1cncc(-c2nc3cnc4[nH]ccc4c3n2C2CCNCC2)c1 [Example 153, 1-Piperidin-4-yl-2-pyridin-3-yl-1,6-dihydro-1,2,3,5,6-tetraaza-as-indacene] | < 500
13 | c1ccc(CN2CCC(n3c(C4CCOCC4)nc4cnc5[nH]ccc5c43)CC2)cc1 [Example 154, 1-(1-Benzyl-piperidin-4-yl)-2-(tetrahydro-pyran-4-yl)-1,6-dihydro-1,2,3,5,6-tetraaza-as-indacene] | < 500
14 | c1ccc(CN2CCC(n3c(CN4CCOCC4)nc4cnc5[nH]ccc5c43)CC2)cc1 [Example 155, 1-(1-Benzyl-piperidin-4-yl)-2-morpholin-4-ylmethyl-1,6-dihydro-1,2,3,5,6-tetraaza-as-indacene] | < 500
15 | CNC(=O)c1nc2cnc3[nH]ccc3c2n1C1CCN(Cc2ccccc2)CC1 [Example 159, 1-(1-Benzyl-piperidin-4-yl)-1,6-dihydro-1,2,3,5,6-tetraaza-as-indacene-2-carboxylic acid methylamide] | < 500
16 | N#CCCN1CCC(n2c(CC(=O)N3CCOCC3)nc3cnc4[nH]ccc4c32)CC1 [Example 160, 3-{4-[2-(2-Morpholin-4-yl-2-oxo-ethyl)-6H-1,2,3,5,6-tetraaza-as-indacen-1-yl]-piperidin-1-yl}-propionitrile] | < 500
17 | CC(C)(C)OC(=O)N1CC(c2nc3cnc4[nH]ccc4c3n2C2CCN(Cc3ccccc3)CC2)C1 [Example 161, 3-[1-(1-Benzyl-piperidin-4-yl)-1,6-dihydro-1,2,3,5,6-tetraaza-as-indacen-2-yl]azetidine-1-carboxylic acid tert-butyl ester] | < 500
18 | c1ccc(CN2CCC(n3c(C4CNC4)nc4cnc5[nH]ccc5c43)CC2)cc1 [Example 162, 2-Azetidin-3-yl-1-(1-benzyl-piperidin-4-yl)-1,6-dihydro-1,2,3,5,6-tetraaza-as-indacene] | < 500
19 | N#Cc1nc2cnc3[nH]ccc3c2n1C1CCN(Cc2ccccc2)CC1 [Example 163, 1-(1-Benzyl-piperidin-4-yl)-1,6-dihydro-1,2,3,5,6-tetraaza-as-indacene-2-carbonitrile] | < 500
20 | CC(C)(C#N)c1nc2cnc3[nH]ccc3c2n1C1CCN(Cc2cnccn2)CC1 [Example 164, 2-Methyl-2-[1-(1-pyrazin-2-ylmethyl-piperidin-4-yl)-1,6-dihydro-1,2,3,5,6-tetraaza-as-indacen-2-yl]-propionitrile] | < 500

Row | Compound | Ki [nM]
21 | CC(C)NC(=O)[C@H]1CC[C@H](n2nnc3cnc4[nH]ccc4c32)CC1 [Example 165, Trans 4-(6H-1,2,3,5,6-Pentaaza-as-indacen-1-yl)-cyclohexanecarboxylic acid isopropylamide] | < 500
22 | O=C([C@H]1CC[C@H](n2cnc3cnc4[nH]ccc4c32)CC1)N1CCOCC1 [Example 166, Trans Morpholin-4-yl-[4-(6H-1,2,3,5,6-tetraaza-as-indacen-1-yl)-cyclohexyl]-methanone] | < 500
23 | FC(F)(F)c1nc2cnc3[nH]ccc3c2n1C1CCN(Cc2ccccc2)CC1 [Example 167, 1-(1-Benzyl-piperidin-4-yl)-2-trifluoromethyl-1,6-dihydro-1,2,3,5,6-tetraaza-as-indacene] | < 500
24 | CC(C)c1nc2cnc3[nH]ccc3c2n1C1CCNCC1 [Example 168, 2-Isopropyl-1-piperidin-4-yl-1,6-dihydro-1,2,3,5,6-tetraaza-as-indacene] | < 500
25 | CC(C)(C)OC(=O)N1CCC(n2c(C#N)nc3cnc4[nH]ccc4c32)CC1 [Example 169, 4-(2-Cyano-6H-1,2,3,5,6-tetraaza-as-indacen-1-yl)-piperidine-1-carboxylic acid tert-butyl ester] | < 500
26 | N#Cc1nc2cnc3[nH]ccc3c2n1C1CCNCC1 [Example 170, 1-Piperidin-4-yl-1,6-dihydro-1,2,3,5,6-tetraaza-as-indacene-2-carbonitrile] | < 500
27 | CC(C)(O)c1nc2cnc3[nH]ccc3c2n1C1CCN(Cc2ccccc2)CC1 [Example 171, 2-[1-(1-Benzyl-piperidin-4-yl)-1,6-dihydro-1,2,3,5,6-tetraaza-as-indacen-2-yl]-propan-2-ol] | < 500
28 | CC(C)(O)Cc1nc2cnc3[nH]ccc3c2n1C1CCNCC1 [Example 173, 2-Methyl-1-(1-piperidin-4-yl-1,6-dihydro-1,2,3,5,6-tetraaza-as-indacen-2-yl)-propan-2-ol] | < 500
29 | OC(CN1CCC(n2cnc3cnc4[nH]ccc4c32)CC1)(C(F)(F)F)C(F)(F)F [Example 174, 1,1,1,3,3,3-Hexafluoro-2-[4-(6H-1,2,3,5,6-tetraaza-as-indacen-1-yl)-piperidin-1-ylmethyl]-propan-2-ol] | < 500
30 | N#Cc1ccc(N[C@H]2CC[C@H](n3cnc4cnc5[nH]ccc5c43)CC2)nc1 [Example 176, Trans 6-[4-(6H-1,2,3,5,6-Tetraaza-as-indacen-1-yl)-cyclohexylamino]-nicotinonitrile] | < 500
31 | CN1CCC[C@H]1CN1CCC(n2cnc3cnc4[nH]ccc4c32)CC1 [Example 177, 1-[1-((S)-1-Methyl-pyrrolidin-2-ylmethyl)-piperidin-4-yl]-1,6-dihydro-1,2,3,5,6-tetraaza-as-indacene] | < 500
32 | Cc1nc2cnc3[nH]ccc3c2n1C1CCOC(C)(C)C1 (stereo not shown) [Example 178, 1-(2,2-Dimethyl-tetrahydro-pyran-4-yl)-2-methyl-1,6-dihydro-1,2,3,5,6-tetraaza-as-indacene] | < 500
33 | FC1(F)CN(Cc2ccccc2)CCC1n1cnc2cnc3[nH]ccc3c21 (stereo not shown) [Example 179, 1-(1-Benzyl-3,3-difluoro-piperidin-4-yl)-1,6-dihydro-1,2,3,5,6-tetraaza-as-indacene] | < 500
34 | O=CN1CCC(n2cnc3cnc4[nH]ccc4c32)C(F)(F)C1 (stereo not shown) [Example 180, 3,3-Difluoro-4-(6H-1,2,3,5,6-tetraaza-as-indacen-1-yl)-piperidine-1-carbaldehyde] | < 500
35 | Cc1nc2cnc3[nH]ccc3c2n1-c1ccc(C#N)cc1 [Example 183, 4-(2-Methyl-6H-1,2,3,5,6-tetraaza-as-indacen-1-yl)-benzonitrile] | < 500
36 | OCCN1CC[C@@H](n2cnc3cnc4[nH]ccc4c32)C1 [Example 184, 2-[(R)-3-(6H-1,2,3,5,6-Tetraaza-as-indacen-1-yl)-pyrrolidin-1-yl]-ethanol] | < 500
37 | CC(C)(O)CN1CC[C@@H](n2cnc3cnc4[nH]ccc4c32)C1 [Example 185, 2-Methyl-1-[(R)-3-(6H-1,2,3,5,6-tetraaza-as-indacen-1-yl)-pyrrolidin-1-yl]-propan-2-ol] | < 500
38 | CC(C)(C#N)C(=O)N1CC[C@@H](n2cnc3cnc4[nH]ccc4c32)C1 [Example 186, 2,2-Dimethyl-3-oxo-3-[(R)-3-(6H-1,2,3,5,6-tetraaza-as-indacen-1-yl)-pyrrolidin-1-yl]-propionitrile] | < 500
39 | N#CCCN1CC[C@@H](n2cnc3cnc4[nH]ccc4c32)C1 [Example 187, 3-[(R)-3-(6H-1,2,3,5,6-Tetraaza-as-indacen-1-yl)-pyrrolidin-1-yl]-propionitrile] | < 500
40 | CC(=O)N1CC[C@@H](n2cnc3cnc4[nH]ccc4c32)C1 [Example 188, 1-[(R)-3-(6H-1,2,3,5,6-Tetraaza-as-indacen-1-yl)-pyrrolidin-1-yl]-ethanone] | < 500
